Reference: publication PMC4948778
No constants are given. Whether binding was seen depends on the method and setting. Binding seen in cells or lysates may run through a third protein.

Target: RPP1_NdA LRR domain (aa 606-1154) (Arabidopsis thaliana)
Experiment: co-IP; differently tagged (3xFlag, 6xHA) constructs transiently co-expressed in N. benthamiana leaves, 36 or 48 hpi; alpha-Flag agarose, 3 h at 4 C; 50 mM Tris-HCl pH 7.5, 150 mM NaCl, 0.1% Triton X-100, 0.2% Nonidet P-40, 6 mM beta-mercaptoethanol; no effector needed (in Fig 7A and S18 ATR1_Emoy2 or ATR1_Cala2 co-expressed, said not to affect binding)

B1: RPS2 LRR (aa 490-909) (domain or fragment, UniProt Q42484 490-909)
chain: KELILVEPSMGHTEAPKAENWRQALVISLLDNRIQTLPEKLICPKLTTLMLQQNSSLKKIPTGFFMHMPVLRVLDLSFTSITEIPLSIKYLVELYHLSMSGTKISVLPQELGNLRKLKHLDLQRTQFLQTIPRDAICWLSKLEVLNLYYSYAGWELQSFGEDEAEELGFADLEYLENLTTLGITVLSLETLKTLFEFGALHKHIQHLHVEECNELLYFNLPSLTNHGRNLRRLSIKSCHDLEYLVTPADFENDWLPSLEVLTLHSLHNLTRVWGNSVSQDCLRNIRCINISHCNKLKNVSWVQKLPKLEVIELFDCREIEELISEHESPSVEDPTLFPSLKTLRTRDLPELNSILPSRFSFQKVETLVITNCPRVKKLPFQERRTQMNLPTVYCEEKWWKALEKDQPNEELCYLPRFVPN
- binding: no binding
